These are yes or no findings as the source states them, for the method shown. For some assays here: A result given as binding can be weak or reduced; the word gives no strength.
Legend:
[1] = molecular target: ComR of Streptococcus mutans UA159 (Streptococcus mutans UA159); assay: ITC; XIP injected into ComR that was incubated with a 1.5 molar excess of paratox for 10 min; VP-ITC, 25 °C; matched DMSO; both purified
[2] = molecular target: paratox (Prx) of Streptococcus pyogenes MGAS315 (Streptococcus pyogenes MGAS315); assay: ITC; control: XIP titrated into dilute paratox alone; VP-ITC, 25 °C; matched DMSO; both purified

GLDWWSL [XIP (sigX-inducing peptide) of Streptococcus mutans UA159] was tested, and the binding [1] was “binds” and the binding [2] was “no binding”.
